From PubChem BioAssay AID248 (DTP/NCI, 2004)
The list shows only some results of the screen, not a fair sample: it gathers tests that were run many times, whatever their T/C, doses with no T/C, and many T/C values between a quarter and a half above the control. Other doses and runs of a compound stand elsewhere. T/C is the treated group as % of the vehicle group. Some doses have a count of surviving animals in place of a T/C: the source holds a T/C of zero for them, seemingly a mark for toxic or unscored doses. Some survivor counts are full or nearly so, which does not show that the dose was tolerated: survival well below the control is almost never listed, so the zero probably covers shortened survival too. Counts of survivors are from the toxicity check (mostly the fifth day) where no day follows; animals may have died later. Schedule codes are those of the source, read here as Q, the interval in days (D) or hours (H), X, the number of doses. Some entries hold several experiments; the results are listed from low to high. Some schedules carry Z or #; the key to these is not given. Some structures stand for samples that the source files as different forms (salt, stereo form or complex); doses refer to the form tested. For survival time, this PubChem deposit counts one and a half times the control or more as active, and values a quarter to a half above the control carry no call in these data; other NCI protocols may use other cut-offs.

System: L1210 leukemia ip in BDF1 mice, survival T/C
Experiment: NCI In Vivo Anticancer Drug Screen. Data for tumor model L1210 Leukemia (intraperitoneal) in B6D2F1 (BDF1) mice
Conditions: T/C endpoint: mean survival time, higher T/C = longer survival
[1] = dose: 4.0 mg/kg/injection, schedule: Q01DX Z (ip), vehicle: saline
[2] = dose: 200.0 mg/kg/injection, schedule: Q04DX003 (ip), vehicle: saline
[3] = dose: 25.0 mg/kg/injection, schedule: Q01DX009 (ip), vehicle: saline with Tween-80
[4] = dose: 400.0 mg/kg/injection, schedule: Q01DX009 (ip), vehicle: Klucel (hydroxypropylcellulose) (HPC)
[5] = dose: 400.0 mg/kg/injection, schedule: Q04DX002 (ip), vehicle: saline
[6] = dose: 50.0 mg/kg/injection, schedule: Q01DX009 (ip), vehicle: saline with Tween-80
[7] = dose: 200.0 mg/kg/injection, schedule: Q04DX003 (ip), vehicle: saline with Tween-80
[8] = dose: 400.0 mg/kg/injection, schedule: Q04DX003 (ip), vehicle: saline with Tween-80
[9] = dose: 200.0 mg/kg/injection, schedule: Q01DX009 (ip), vehicle: Klucel (hydroxypropylcellulose) (HPC)
[10] = dose: 400.0 mg/kg/injection, schedule: Q04DX002 (ip), vehicle: Klucel (hydroxypropylcellulose) (HPC)
[11] = dose: 100.0 mg/kg/injection, schedule: Q01DX001 (ip), vehicle: carboxymethylcellulose (CMC)
[12] = dose: 200.0 mg/kg/injection, schedule: Q01DX001 (ip), vehicle: carboxymethylcellulose (CMC)
[13] = dose: 400.0 mg/kg/injection, schedule: Q01DX001 (ip), vehicle: carboxymethylcellulose (CMC)

SMILES: O=P(N1CCCCC1)(N1CC1)N1CC1
- T/C (dose: 1.0 mg/kg/injection, schedule: Q01DX Z (ip), vehicle: saline): 149 % of control
- T/C [1]: 147 % of control
- survivor count [1]: 5 of 6
- T/C (dose: 9.0 mg/kg/injection, schedule: Q01DX Z (ip), vehicle: saline): 143 % of control
- T/C (dose: 14.0 mg/kg/injection, schedule: Q01DX Z (ip), vehicle: saline): 145 % of control
- T/C (dose: 15.0 mg/kg/injection, schedule: Q01DX015 (ip), vehicle: saline): 148 % of control
- T/C (dose: 20.0 mg/kg/injection, schedule: Q01DX001 (ip), vehicle: saline): 129 % of control
- survivor count (dose: 30.0 mg/kg/injection, schedule: Q01DX011 (ip), vehicle: saline): 5 of 6
- survivor count (dose: 32.0 mg/kg/injection, schedule: Q01DX Z (ip), vehicle: saline): 4 of 6
- survivor count (dose: 40.0 mg/kg/injection, schedule: Q01DX001 (ip), vehicle: saline): 2 of 4
- survivor count (dose: 80.0 mg/kg/injection, schedule: Q01DX001 (ip), vehicle: saline): 2 of 4 and 3 of 4
- survivor count (dose: 100.0 mg/kg/injection, schedule: Q01DX001 (ip), vehicle: saline): 5 of 6
- survivor count (dose: 200.0 mg/kg/injection, schedule: Q01DX001 (ip), vehicle: saline): 6 of 6
- survivor count (dose: 400.0 mg/kg/injection, schedule: Q01DX001 (ip), vehicle: saline): 0 of 6

SMILES: CCCCC(CCN(C)C)(CNC(=O)CN(CC)CC)c1cccc2ccccc12 (stereo unspecified)
- survivor count [2]: 4 of 6
- survivor count (dose: 400.0 mg/kg/injection, schedule: Q04DX003 (ip), vehicle: saline): 0 of 6

SMILES: CCN(CC)CCOc1ccccc1C
- survivor count (dose: 160.0 mg/kg/injection, schedule: Q04DX003 (ip), vehicle: saline): 1 of 6

SMILES: [Cl][Hg][c]1ccc2ccccc2c1
- survivor count (dose: 6.25 mg/kg/injection, schedule: Q01DX009 (ip), vehicle: saline with Tween-80): 3 of 3
- survivor count [3]: 2 of 3

SMILES: COc1ccc(/C=C/c2nc3ccccc3nc2/C=C/c2ccc(OC)c(OC)c2)cc1OC
- survivor count [4]: 6 of 6

SMILES: CCCCN(CCCC)CN(CCCC)CCCC
- survivor count (dose: 100.0 mg/kg/injection, schedule: Q01DX009 (ip), vehicle: saline with Tween-80): 2 of 6
- survivor count (dose: 200.0 mg/kg/injection, schedule: Q01DX009 (ip), vehicle: saline with Tween-80): 0 of 6
- survivor count (dose: 400.0 mg/kg/injection, schedule: Q01DX009 (ip), vehicle: saline with Tween-80): 0 of 6
- survivor count [5]: 3 of 3

SMILES: CCCCCC(CN(C)C)C(=O)/C=C/c1ccccc1Cl (stereo unspecified)
- survivor count (dose: 100.0 mg/kg/injection, schedule: Q01DX009 (ip), vehicle: other): 5 of 6
- survivor count (dose: 200.0 mg/kg/injection, schedule: Q01DX009 (ip), vehicle: other): 0 of 6
- survivor count (dose: 400.0 mg/kg/injection, schedule: Q01DX009 (ip), vehicle: other): 0 of 6

SMILES: CC(C)(C)CNC(=S)Nc1ccccc1
- survivor count (dose: 150.0 mg/kg/injection, schedule: Q01DX001 (ip), vehicle: other): 1 of 6
- survivor count (dose: 300.0 mg/kg/injection, schedule: Q01DX001 (ip), vehicle: other): 0 of 6

SMILES: FC1(F)SC2CCCC2C1(F)F (stereo unspecified)
- survivor count [3]: 0 of 6
- survivor count [6]: 0 of 6
- survivor count (dose: 100.0 mg/kg/injection, schedule: Q04DX003 (ip), vehicle: saline with Tween-80): 6 of 6
- survivor count [7]: 0 of 6
- survivor count [8]: 0 of 6

SMILES: O=C(Nc1cccc(F)c1)Nc1nccs1
- survivor count [9]: 1 of 6
- survivor count [4]: 0 of 6

SMILES: CCCCCCCNC(CC(C)C)C(=O)OCC (stereo unspecified)
- survivor count (dose: 100.0 mg/kg/injection, schedule: Q04DX002 (ip), vehicle: Klucel (hydroxypropylcellulose) (HPC)): 1 of 3
- survivor count (dose: 200.0 mg/kg/injection, schedule: Q04DX002 (ip), vehicle: Klucel (hydroxypropylcellulose) (HPC)): 1 of 3
- survivor count [10]: 0 of 3

SMILES: CCCC[n+]1cccc(C(=O)c2ccccc2)c1
- survivor count (dose: 150.0 mg/kg/injection, schedule: Q01DX001 (ip), vehicle: saline): 2 of 6
- survivor count (dose: 300.0 mg/kg/injection, schedule: Q01DX001 (ip), vehicle: saline): 0 of 6

SMILES: BrCCN1CCCCC1
- survivor count (dose: 12.5 mg/kg/injection, schedule: Q01DX009 (ip), vehicle: saline): 3 of 3 and 6 of 6
- survivor count (dose: 25.0 mg/kg/injection, schedule: Q01DX009 (ip), vehicle: saline): 3 of 6 and 2 of 3
- survivor count (dose: 50.0 mg/kg/injection, schedule: Q01DX001 (ip), vehicle: saline): 3 of 6
- survivor count (dose: 50.0 mg/kg/injection, schedule: Q01DX009 (ip), vehicle: saline): 0 of 3 and 0 of 6
- survivor count (dose: 50.0 mg/kg/injection, schedule: Q04DX002 (ip), vehicle: saline): 3 of 3
- survivor count (dose: 50.0 mg/kg/injection, schedule: Q04DX003 (ip), vehicle: saline): 2 of 6
- survivor count (dose: 100.0 mg/kg/injection, schedule: Q04DX002 (ip), vehicle: saline): 0 of 3 and 0 of 6
- survivor count (dose: 200.0 mg/kg/injection, schedule: Q04DX002 (ip), vehicle: saline): 0 of 3 and 0 of 6
- survivor count [5]: 0 of 3 and 0 of 6

SMILES: C[C@]12CC[C@H](O)C[C@H]1CC[C@@H]1[C@@H]2CC[C@]2(C)[C@@H](C3=CC(=O)OC3)CC[C@]12O
- survivor count [11]: 1 of 6
- survivor count [12]: 1 of 6
- survivor count [13]: 1 of 6

SMILES: CC1(C)N=C(N)N=C(N)N1c1ccc(Cl)c(C(F)(F)F)c1
- T/C (dose: 5.56 mg/kg/injection, schedule: Q01DX009 (ip), vehicle: saline with Tween-80): 126 % of control
- T/C (dose: 12.5 mg/kg/injection, schedule: Q01DX009 (ip), vehicle: saline with Tween-80): 131 % of control
- T/C (dose: 18.75 mg/kg/injection, schedule: Q01DX009 (ip), vehicle: saline with Tween-80): 139 % of control
- survivor count [6]: 6 of 6
- survivor count (dose: 75.0 mg/kg/injection, schedule: Q01DX009 (ip), vehicle: saline with Tween-80): 6 of 6
- survivor count [7]: 3 of 6
- survivor count [8]: 1 of 6

SMILES: COc1cc(OC)cc(C(O)C(C)NC(C)C)c1 (stereo unspecified)
- survivor count [9]: 1 of 6
- survivor count [2]: 2 of 4
- survivor count [4]: 1 of 6

SMILES: Cc1c(F)cccc1NCC(=O)NN
- survivor count [10]: 0 of 3

SMILES: Nc1ccc(Cl)c(Cl)c1
- survivor count (dose: 200.0 mg/kg/injection, schedule: Q01DX009 (ip), vehicle: alcohol): 0 of 6
- survivor count (dose: 300.0 mg/kg/injection, schedule: Q01DX009 (ip), vehicle: alcohol): 0 of 6
- survivor count [13]: 2 of 4
- survivor count (dose: 400.0 mg/kg/injection, schedule: Q04DX003 (ip), vehicle: alcohol): 0 of 6

SMILES: Cc1csc(NC(=O)C2C3CCC(O3)C2C(=O)O)n1 (stereo unspecified)
- survivor count (dose: 20.0 mg/kg/injection, schedule: Q01DX001 (ip), vehicle: carboxymethylcellulose (CMC)): 2 of 4
- survivor count (dose: 40.0 mg/kg/injection, schedule: Q01DX001 (ip), vehicle: carboxymethylcellulose (CMC)): 0 of 4
- survivor count (dose: 50.0 mg/kg/injection, schedule: Q01DX001 (ip), vehicle: carboxymethylcellulose (CMC)): 0 of 4
- survivor count (dose: 80.0 mg/kg/injection, schedule: Q01DX001 (ip), vehicle: carboxymethylcellulose (CMC)): 0 of 4
- survivor count [11]: 0 of 4
- survivor count [12]: 0 of 4
- survivor count [13]: 0 of 4

SMILES: CCOP(=O)(OCC)/C(=C\c1ccccc1)C(=O)c1ccccc1
- survivor count (dose: 200.0 mg/kg/injection, schedule: Q04DX003 (ip), vehicle: Klucel (hydroxypropylcellulose) (HPC)): 3 of 6
